Assay results: PubChem BioAssay AID1487 (National Center for Advancing Translational Sciences (NCATS), 2009)
Where “and” joins values, the source holds several entries; their conditions need not be identical. Equal entries are not always repeated. The list shows a part of the results. Shown are side measurements of this screen, not its main read-out; they come without a call. Compounds called inactive in the main read-out are mostly missing here. The note in brackets gives the kind of curve behind each potency; many fits are weak.

Test: qHTS Assay for Modulators of Lamin A Splicing
Details: HeLa LMNA splicing GFP/RFP minigene ratio, 48 h
How it was run: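 Read-out is the ratio of GFP to DsRed2 object intensity, acquired by 488 nm laser-scanning cytometry on HeLa lamin A-EGFP minigene reporter cells. Compound incubation 48 hrs at 37 °C in Opti-MEM with 2% FBS; DMSO 0.5% final.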

[1] = measured here: RFP viability control channel
[2] = measured here: GFP splicing reporter channel

CC(C)Cc1nn2c(=O)cc(COC(=O)c3ccc(NC(=O)CCc4ccccc4)cc3)nc2s1
AC50 [1]: 0.0158 µM [falling, full curve, poor fit]

O=S(=O)(/C=C/c1ccccc1)N1CCN(Cc2ccc3c(c2)OCO3)CC1
AC50 [2]: 0.0891 µM [falling, full curve, poor fit]

Cc1ccc(NC(=O)C(C)Sc2nc(-c3ccccc3)c(C#N)c(=O)[nH]2)c(C)c1 (stereo not drawn)
AC50 [2]: 0.158 µM [falling, full curve, poor fit]
AC50 [1]: 0.0891 µM [falling, full curve, poor fit]

CCOC(=O)c1ccc(NC(=O)c2ccccc2[N+](=O)[O-])cc1
AC50 [2]: 6.31 µM [rising, partial curve, poor fit]

CC(=O)Nc1ccc(SCC(=O)c2cc(C)n(Cc3cccs3)c2C)cc1
AC50 [2]: 8.91 µM [rising, partial curve]
AC50 [1]: 7.94 µM [rising, partial curve]

Cc1noc(/C=C/N(C)C)c1S(=O)(=O)NC1CCCCC1
AC50 [1]: 14.1 µM [rising, single point]

CC(C)(C)c1cnnn1-c1ccc(/C=N/Nc2ccc([N+](=O)[O-])cc2)cc1
AC50 [2]: 35.5 µM [rising, single point]
AC50 [1]: 35.5 µM [rising, single point]

COc1ccccc1OCCCC(=O)Nc1ccc([N+](=O)[O-])cc1Br
AC50 [2]: 0.891 µM [falling, full curve, poor fit]

COc1cccc(/C=N/n2c(C)nc3ccccc32)c1OC
AC50 [1]: 31.6 µM [rising, single point]

O=C(COc1ccc2ccccc2c1)Nc1ccncc1
AC50 [2]: 20 µM [falling, partial curve]
AC50 [1]: 11.2 µM [falling, partial curve]

C=CCNC(=S)Nc1ccc(F)cc1F
AC50 [1]: 17.8 µM [rising, partial curve, poor fit]

Cc1ccc(O)c(C2=Nc3ccccc3N=C(c3cccs3)C2)c1
AC50 [2]: 12.6 µM [rising, single point]
AC50 [1]: 22.4 µM [rising, single point]

O=C(NCCc1ccccc1)c1ccc(CS(=O)(=O)Cc2ccccc2Cl)o1
AC50 [2]: 7.08 µM [falling, full curve, poor fit]

COC(=O)Cn1ncc(N2C3CC(CC(C)(C)C3)C2C)c(Cl)c1=O (stereo not drawn)
AC50 [2]: 14.1 µM [rising, single point]

O=C(COC(=O)c1cccc(NC(=O)c2ccco2)c1)c1ccc(Br)cc1
AC50 [1]: 35.5 µM [rising, single point]

CCOC(=O)c1sc(-c2ccccc2)cc1NC(=O)Nc1ccccc1
AC50 [2]: 31.6 µM [rising, single point]
AC50 [1]: 35.5 µM [rising, single point]

CCCCC(=O)Nc1nn(CC(C)C)c2nc3ccccc3cc12
AC50 [2]: 25.1 µM [rising, partial curve, poor fit]
AC50 [1]: 4.47 µM [rising, single point]

O=C(CSCc1cccc(Cl)c1)N1CCN(Cc2ccc3c(c2)OCO3)CC1
AC50 [1]: 35.5 µM [rising, single point]

Cc1nn(Cc2c(Cl)cccc2Cl)c(C)c1NC(=O)c1cn(-c2ccccc2)nc1-c1ccccc1
AC50 [2]: 7.08 µM [falling, full curve]
AC50 [1]: 5.62 µM [falling, full curve]

Cc1ccc(C(=O)/C=C/c2c[nH]c3ccccc23)cc1
AC50 [2]: 15.8 µM [falling, single point]
AC50 [1]: 35.5 µM [falling, single point]

O=C(COC(=O)Cn1cnc2ccccc2c1=O)Nc1ccccc1Sc1ccc(Cl)cc1
AC50 [2]: 11.2 µM [rising, single point]
AC50 [1]: 12.6 µM [rising, partial curve]

CC(C)c1ccc(NC(=O)C[n+]2ccn(C3=C([O-])c4ccccc4C3=O)c2)cc1
AC50 [2]: 0.00794 µM [falling, full curve, poor fit]

CCOCCn1c(CN(Cc2ccccc2)Cc2ccccc2)nc2c1c(=O)n(C)c(=O)n2C
AC50 [2]: 35.5 µM [rising, single point]

Cn1c(Cc2ccccc2)nnc1SCC(=O)N1CCN(c2ccccc2)CC1
AC50 [2]: 10 µM [rising, partial curve, poor fit]
AC50 [1]: 15.8 µM [rising, single point]

COc1ccc(-c2nnc(NC(=O)c3ccc(F)cc3)o2)cc1
AC50 [1]: 6.31 µM [rising, full curve]

Fc1ccc(CSc2ncnc3scc(-c4ccccc4)c23)cc1
AC50 [1]: 15.8 µM [rising, partial curve]

CC(C)Cc1nc(N2CCOCC2)c(C#N)c2c1CCC2
AC50 [2]: 35.5 µM [rising, single point]
AC50 [1]: 35.5 µM [rising, single point]

C=CC(c1ccccc1)C(C(=O)c1ccccc1)N(C)C (stereo not drawn)
AC50 [1]: 2.24 µM [falling, full curve, poor fit]

Cc1nc(N)nc(N)c1/C=C/C(C)(C)c1ccc(Cl)cc1
AC50 [2]: 20 µM [falling, partial curve]
AC50 [1]: 20 µM [falling, partial curve]

COc1ccc(-c2nc3cnc(Oc4cccc(Cl)c4)nc3n(CCC#N)c2=O)cc1
AC50 [2]: 12.6 µM [falling, partial curve]
AC50 [1]: 11.2 µM [falling, partial curve]

COc1cc(S(=O)(=O)N2CCCCC2)ccc1NC(=O)c1ccccc1Cl
AC50 [1]: 35.5 µM [rising, single point]

Cc1ccc(CNc2ncnc3c2cnn3-c2ccc(Cl)cc2)cc1
AC50 [2]: 35.5 µM [falling, single point]
AC50 [1]: 0.0282 µM [falling, full curve, poor fit]

OCc1cc(C(O)CNCCCCCCOCCCCc2ccccc2)ccc1O (stereo not drawn)
AC50 [2]: 17.8 µM [falling, single point] and 1.26 nM [falling, full curve, poor fit]
AC50 [1]: 14.1 µM [falling, partial curve]

COc1ccc(-c2nn(-c3ccccc3)cc2/C=N/NC(=S)NC(C)C)cc1OC
AC50 [1]: 5.01 µM [rising, full curve, poor fit]

CCN1CCN(c2nc(Nc3ccc(C)c(C)c3)nc(N)c2[N+](=O)[O-])CC1
AC50 [2]: 0.02 µM [rising, full curve, poor fit]
AC50 [1]: 0.0562 µM [rising, partial curve, poor fit]

C#CCN1C(C)=C(C(=O)OC)C(c2cccc([N+](=O)[O-])c2)C(C(=O)OCC)=C1C (stereo not drawn)
AC50 [1]: 0.00224 µM [falling, full curve, poor fit]

COCCNC(=O)C12CC3CC(C1)CC(c1ccccc1)(C3)C2
AC50 [1]: 0.0178 µM [falling, full curve, poor fit]

O=C(NCCCN1CCOCC1)c1cc(-c2cccs2)on1
AC50 [2]: 35.5 µM [falling, single point]
AC50 [1]: 31.6 µM [falling, single point]

CC(=O)Nc1cc(O)cc(O)c1
AC50 [1]: 1.26 µM [falling, partial curve]

CCOc1cc(CNC(C)(C)C)ccc1OCC(=O)Nc1cccc(C(F)(F)F)c1
AC50 [1]: 25.1 µM [rising, partial curve, poor fit]

CCc1nnc(NS(=O)(=O)c2ccc(NC(=S)NC(=O)/C=C/c3ccc(OC)cc3)cc2)s1
AC50 [2]: 5.62 µM [falling, single point]
AC50 [1]: 4.47 µM [falling, single point]

CC1CCCc2sc3nc(NCc4ccco4)n4ncnc4c3c21 (stereo not drawn)
AC50 [2]: 35.5 µM [rising, single point]
AC50 [1]: 35.5 µM [rising, single point]

COc1ccc2oc(=O)c(-c3cn4c(n3)sc3cc(OC)ccc34)cc2c1
AC50 [2]: 0.282 µM [falling, partial curve]

CN(C)c1ccc(N=Cc2ccco2)cc1
AC50 [2]: 12.6 µM [rising, partial curve, poor fit]

Cc1ccc(C(=O)NCCNC(=O)c2ccccc2)cc1
AC50 [2]: 0.0398 µM [falling, full curve, poor fit]
AC50 [1]: 8.91 µM [falling, partial curve, poor fit]

Cc1ccsc1/C=N/Nc1nc(=O)[nH]nc1C
AC50 [2]: 35.5 µM [falling, single point]

Cc1ccccc1-c1n[nH]c(=S)n1/N=C/c1c(C)nn(-c2ccccc2)c1C
AC50 [1]: 12.6 µM [rising, partial curve]

Cc1noc(C)c1-c1nc(NCc2ccccc2)c2ccccc2n1
AC50 [2]: 11.2 µM [falling, partial curve]
AC50 [1]: 12.6 µM [falling, single point]

O=C(NCC(c1ccc2c(c1)OCO2)N1CCOCC1)C(=O)Nc1ccc(F)cc1F (stereo not drawn)
AC50 [2]: 0.891 µM [falling, full curve]

CSc1nc(Cc2ccccc2)nc2ccccc12
AC50 [2]: 6.31 µM [rising, single point]

COc1ccc(N(Cc2cccs2)C(=O)c2ccc(C(C)(C)C)cc2)cc1
AC50 [2]: 17.8 µM [rising, partial curve, poor fit]
AC50 [1]: 35.5 µM [rising, single point]

FC(F)(F)c1ccccc1-c1nc(Nc2ccncc2)c2ccccc2n1
AC50 [2]: 20 µM [falling, partial curve]

CCNC(=S)NNC(=O)c1cc(-c2cccc(C)c2)nc2ccccc12
AC50 [2]: 8.91 µM [rising, partial curve]
AC50 [1]: 15.8 µM [rising, partial curve]

O=C(CNC(=O)c1ccc(Cl)cc1)N/N=C/C=C/c1ccccc1
AC50 [1]: 0.0794 µM [rising, full curve, poor fit]
